Type in all cases: cell-based
For one test, the system named is LNCaP cells. The test is described as follows: Cell proliferation assay, LNCaP cells. The conditions noted are these: Homo sapiens, read-out: IC50, inhibition of proliferation.
The test system of a further test is LNCaP-C4-2 cells. Briefly: Cell proliferation assay, LNCaP-C4-2 cells. The conditions noted are these: Homo sapiens, LNCaP C4-2, read-out: IC50, inhibition of proliferation.
The subject of the next test is LNCaP-95 cells. The test is described as follows: Cell proliferation assay, LNCaP-95 cells.
The next test concerns LNCaP-abl cells. The test is described as follows: Cell proliferation assay, LNCaP-abl cells.

pIC50: −log10 of the molar value.

Turning to `CNC(=O)c1ccc(N2C(=S)N(c3ccc(C#N)c(C(F)(F)F)c3)C(=O)C2(C)C)cc1F` [enzalutamide], the values for the pIC50 in the test on LNCaP cells and in the test with LNCaP-C4-2 cells were 4.72 and 4.73, respectively. Also, the “IC50, inhibition of proliferation” value in the test on LNCaP-95 cells and with LNCaP-abl cells was “not reached” each time.

The record behind these values is PMC5010535 (Cancer research, 2016).
